Reference: publication PMC10932150
These are yes or no findings as the source states them, for the method shown. Binding seen in cells or lysates may run through a third protein. Some entries that bind do so weakly or less than the wild type.

Target: HA-tagged HSP90A (UniProt P07900)
Experiment: co-IP; lysates (NP-40 lysis buffer) of cells cotransfected with HA-HSP90, EGFP-PRMT5 (wild type or mutant) and/or Flag-MEP50 in different combinations; precipitated with anti-HA, anti-GFP or anti-Flag antibodies and Protein G Sepharose, 4 °C overnight; western blot; 293T cells are named for Figure 2A and S2A

binding: binds
Substance: EGFP-tagged PRMT5 (wild type) (from UniProt O14744 1-637) (enzyme)
